This note sets out measurements from article PMC3194794.

The target in the experiment is Dynamin 2, yeast two-hybrid fusion (human). The experiment in a line: two-hybrid; S. cerevisiae AH109 co-transformed with bait and prey plasmids; selection on SD-Leu-Trp, interaction by growth on SD-Leu-Trp-His-Ade.

Results are given in words; binding and its absence hold for the method and conditions named. Binding can be weak; no strength is given. Tags and fused reporters may be left off the sequences shown.

B1: Dynamin 1, yeast two-hybrid fusion (protein, UniProt Q05193 1-864)
chain: MGNRGMEDLIPLVNRLQDAFSAIGQNADLDLPQIAVVGGQSAGKSSVLENFVGRDFLPRGSGIVTRRPLVLQLVNATTEYAEFLHCKGKKFTDFEEVRLEIEAETDRVTGTNKGISPVPINLRVYSPHVLNLTLVDLPGMTKVPVGDQPPDIEFQIRDMLMQFVTKENCLILAVSPANSDLANSDALKVAKEVDPQGQRTIGVITKLDLMDEGTDARDVLENKLLPLRRGYIGVVNRSQKDIDGKKDITAALAAERKFFLSHPSYRHLADRMGTPYLQKVLNQQLTNHIRDTLPGLRNKLQSQLLSIEKEVEEYKNFRPDDPARKTKALLQMVQQFAVDFEKRIEGSGDQIDTYELSGGARINRIFHERFPFELVKMEFDEKELRREISYAIKNIHGIRTGLFTPDMAFETIVKKQVKKIREPCLKCVDMVISELISTVRQCTKKLQQYPRLREEMERIVTTHIREREGRTKEQVMLLIDIELAYMNTNHEDFIGFANAQQRSNQMNKKKTSGNQDEILVIRKGWLTINNIGIMKGGSKEYWFVLTAENLSWYKDDEEKEKKYMLSVDNLKLRDVEKGFMSSKHIFALFNTEQRNVYKDYRQLELACETQEEVDSWKASFLRAGVYPERVGDKEKASETEENGSDSFMHSMDPQLERQVETIRNLVDSYMAIVNKTVRDLMPKTIMHLMINNTKEFIFSELLANLYSCGDQNTLMEESAEQAQRRDEMLRMYHALKEALSIIGDINTTTVSTPMPPPVDDSWLQVQSVPAGRRSPTSSPTPQRRAPAVPPARPGSRGPAPGPPPAGSALGGAPPVPSRPGASPDPFGPPPQVPSRPNRAPPGVPSRSGQASPSRPESPRPPFDL
On to B1, for which the binding result is given as “binds”.
